{"source": "PubChem BioAssay AID2685", "about": "(National Center for Advancing Translational Sciences (NCATS), 2010)", "note": "In all, about 320,000 compounds went through this assay and about 2,100 (0.66%) were called active. Inconclusive results, whose numbers are uncertain, are shown with a selection of clear calls. The call rests on the fitted dose curve; in most records, active means well fitted inhibition curve with a large enough effect in the signal ratio, with a control signal flat (not every such curve was filed as active); inconclusive means small, poorly fitted or top-dose-only effect, or effect the other way, or a change in a side signal; inactive means flat fitted curve, though single readings scatter; the % refers to the signal ratio. A potency beside an inconclusive call is a rough fit, not a confirmed value. On the % scale 0 is the no-effect control and ±100 the full control effect; potency means the concentration at half of the fitted maximal effect.", "data": [{"assay": "qHTS Assay for Lipid Storage Modulators in Drosophila S3 Cells", "details": "BODIPY lipid droplet fluorescence, 18-24 h, cells fed with added oleic acid; lipid storage change, negative = inhibition: at 46.1 µM (top of the series) unless noted", "method_in_brief": "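Laser-scanning cytometry quantifies lipid droplet accumulation (500–530 nm total intensity; droplet/cell object ratio) in oleic acid-fed (400 uM added) Drosophila S3 cells treated with a concentration series. 20 uM Triacsin C defined 100% inhibition.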", "values": [{"smiles": "COc1cccc(CN2C(=O)C(C)N(C(=O)c3ccccc3)c3ccccc32)c1", "note": "(stereo not given)", "lipid storage change, negative = inhibition": "inactive: -3.54%"}, {"smiles": "O=C(Nc1ccc(F)cc1F)N1CCN(c2ncccn2)CC1", "lipid storage change, negative = inhibition": "inconclusive: 20%"}, {"smiles": "Cc1cc(=O)n(CCC(=O)O)c2ccccc12", "lipid storage change, negative = inhibition": "inconclusive: 16.2%"}, {"smiles": "COC(=O)/C=C1\\SC(=NC(=O)c2ccc(OC)cc2)NC1=O", "lipid storage change, negative = inhibition": "inconclusive: 341%"}, {"smiles": "CS(=O)(=O)N(CCc1ccccc1)CC(=O)Nc1ccc(OCc2ccccc2)cc1", "lipid storage change, negative = inhibition": "inconclusive: -1.97%"}, {"smiles": "Cc1cc([N+](=O)[O-])ccc1NC(=O)c1csc(C)c1C", "Potency": "inconclusive: 29.1 µM [activator, single point]"}, {"smiles": "CCOC(=O)CSc1nc2sc(C)c(C)c2c(=O)[nH]1", "lipid storage change, negative = inhibition": "inconclusive: 195%"}, {"smiles": "CCc1ccccc1N1CCN(S(=O)(=O)c2cc(OC)ccc2OC)CC1", "outcome": "inactive [at 46.1 µM]"}, {"smiles": "CCCCNC(=O)COC(=O)c1ccc(NC(C)=O)cc1", "lipid storage change, negative = inhibition": "inconclusive: 5.95%"}, {"smiles": "NC(=S)Nc1c(Cl)cccc1Cl", "lipid storage change, negative = inhibition": "inconclusive: 11%"}, {"smiles": "CC(=O)c1cccc(-n2nnnc2SCC(=O)NNC(=O)C(C)C)c1", "lipid storage change, negative = inhibition": "inconclusive: 24.1%"}, {"smiles": "Cc1ccc2onc(CC(=O)O)c2c1", "lipid storage change, negative = inhibition": "inconclusive: -23.3%"}, {"smiles": "O=C1c2ccccc2C(=O)N1Cc1nc2ccccc2c(=O)n1Cc1ccco1", "lipid storage change, negative = inhibition": "inconclusive: -33.1%"}, {"smiles": "CCC(C)N(C(=O)COC(=O)c1nc2nc(C)cc(C)n2n1)C1CCS(=O)(=O)C1", "note": "(stereo not given)", "lipid storage change, negative = inhibition": "inconclusive: 38.2% [activator] [at 0.0737 µM]"}, {"smiles": "COc1cccc(-c2nn(-c3ccccc3)cc2C(=O)n2nnc3ccccc32)c1", "lipid storage change, negative = inhibition": "inconclusive: 0.357%"}, {"smiles": "Cc1ccc(N2CC(O)Cn3c2nc2c3c(=O)n(C)c(=O)n2C)cc1", "note": "(stereo not given)", "lipid storage change, negative = inhibition": "inconclusive: 44.2%"}, {"smiles": "N#Cc1ccsc1NC(=O)c1cccc(-n2cnnn2)c1", "lipid storage change, negative = inhibition": "inconclusive: -20.4%"}, {"smiles": "COc1ccccc1Cn1c(=O)[nH]c2cccnc21", "Potency": "inconclusive: 29.1 µM [activator, single point]"}, {"smiles": "CN(NC(=O)c1ccccc1F)c1nc(C(F)(F)F)nc2ccccc12", "lipid storage change, negative = inhibition": "inconclusive: 21.1%"}, {"smiles": "CCOc1ccccc1C(=O)Nc1c[nH]c(=O)[nH]c1=O", "lipid storage change, negative = inhibition": "inconclusive: 59.8%"}, {"smiles": "COc1cccc(C(=O)Nc2ccc3[nH]c(=O)[nH]c3c2)c1OC", "lipid storage change, negative = inhibition": "inconclusive: -100%"}, {"smiles": "O=C(CC12CC3CC(CC(C3)C1)C2)Nc1nncs1", "lipid storage change, negative = inhibition": "inconclusive: 116%"}, {"smiles": "COc1ccc(S(=O)(=O)N2CCC(C(=O)NC3CCCCC3)CC2)cc1C", "lipid storage change, negative = inhibition": "inconclusive: -175%"}, {"smiles": "CC12CC3(C)CC(C)(C1)CC(C(N)=O)(C2)C3", "lipid storage change, negative = inhibition": "inconclusive: 35.5%"}, {"smiles": "CC(C)Nc1nc(Cl)nc(NN(C)c2nc(N(C)C)nc(N(C)C)n2)n1", "Potency": "inconclusive: 29.1 µM [rising, single point]"}, {"smiles": "COc1ccc(-c2nnc(NC(=O)c3ccc(S(=O)(=O)N(C)CC4CCCO4)cc3)o2)c(OC)c1", "note": "(stereo not given)", "Potency": "inconclusive: 0.184 µM [falling, full curve, poor fit]"}, {"smiles": "COc1ccc(Nc2cc(Cl)nc(N)n2)cc1OC", "lipid storage change, negative = inhibition": "inconclusive: 6.53%"}, {"smiles": "CCc1ccc(OCC(=O)NNC(=O)c2cc(S(=O)(=O)N(C)C)ccc2N2CCCC2)cc1", "lipid storage change, negative = inhibition": "inconclusive: 25.1%"}, {"smiles": "CC(NC(=O)CSC1=NCCS1)c1ccccc1", "note": "(stereo not given)", "lipid storage change, negative = inhibition": "inconclusive: -6.75%"}, {"smiles": "CC1CC(C)CN(CCCNC(=O)CCC(=O)N2CC(C)Oc3ccccc32)C1", "note": "(stereo not given)", "lipid storage change, negative = inhibition": "inconclusive: -9.02%"}, {"smiles": "COC(=O)c1cccc(NC(=O)CSc2nnc(C)n2Cc2ccccc2)c1", "Potency": "inconclusive: 0.0651 µM [activator, single point]"}, {"smiles": "Cc1cc(C)cc(NC(=O)c2ccc3nc[nH]c3c2)c1", "Potency": "inconclusive: 29.1 µM [activator, single point]"}, {"smiles": "C/C(=N\\N=C1\\NC(=O)C(CC(=O)Nc2ccc(C)c(Cl)c2)S1)C(C)(C)C", "note": "(stereo not given)", "lipid storage change, negative = inhibition": "inconclusive: -25.4%"}, {"smiles": "O=C(Nc1ccc(S(=O)(=O)N2CCCCCC2)cc1)c1ccc(Br)o1", "Potency": "inconclusive: 18.4 µM [falling, single point]"}, {"smiles": "COc1ccc(N2C(=O)c3ccccc3NC2c2ccc(NC(C)=O)cc2)c(OC)c1", "note": "(stereo not given)", "lipid storage change, negative = inhibition": "inconclusive: 108%"}, {"smiles": "Cn1c(C(=O)NCC2CCCO2)cc2c(=O)[nH]c3ccccc3c21", "note": "(stereo not given)", "lipid storage change, negative = inhibition": "inactive: -0.25%"}, {"smiles": "Cc1cc(-c2ccccc2)nnc1NCCN1CCOCC1", "lipid storage change, negative = inhibition": "inconclusive: -0.55%"}, {"smiles": "COc1ccc(S(=O)(=O)N2CCC(Cc3ccccc3)CC2)cc1C(N)=O", "Potency": "inconclusive: 25.9 µM [falling, single point]"}, {"smiles": "CC(C)N(C(=O)COC(=O)c1ccc(Cl)s1)c1ccccc1", "lipid storage change, negative = inhibition": "inconclusive: -13.3%"}, {"smiles": "CCn1c(Cc2ccccc2)nnc1SCC(=O)c1c(N)n(C2CC2)c(=O)[nH]c1=O", "Potency": "inconclusive: 0.517 µM [falling, partial curve, poor fit]"}, {"smiles": "O=C(COc1ccc2ccc(=O)oc2c1)NC1CCN(Cc2ccccc2)CC1", "Potency": "inconclusive: 6.51 µM [activator, partial curve]"}, {"smiles": "CC1=CC2=C(OC1N(C)C)c1cccc3cccc(c13)C2=O", "note": "(stereo not given)", "Potency": "inconclusive: 6.51 µM [activator, single point]"}, {"smiles": "CCOc1ccc(-n2c(N)c(C(=O)NCC3CCCO3)sc2=S)cc1", "note": "(stereo not given)", "lipid storage change, negative = inhibition": "inconclusive: -34.1%"}, {"smiles": "O=C(Nc1ccccc1C(=O)O)c1cccc(N2C(=O)c3ccccc3C2=O)c1", "lipid storage change, negative = inhibition": "inconclusive: 14.4%"}, {"smiles": "CCOC(=O)c1c(NC(=O)CSc2nnc(CNc3ccc(F)cc3)o2)sc(C(C)=O)c1C", "Potency": "inconclusive: 2.59 µM [activator, partial curve]"}, {"smiles": "Cc1ccc(N/C(N)=N/c2nc(CSc3ccc(C)cc3)cc(=O)[nH]2)cc1", "lipid storage change, negative = inhibition": "inconclusive: 159%"}, {"smiles": "NS(=O)(=O)c1ccc(NC(=S)NC2CCCC2)cc1", "lipid storage change, negative = inhibition": "inconclusive: 205%"}, {"smiles": "Cc1c(C(=O)N2CCOCC2)[nH]c2c1C(=O)CC(c1ccccc1Cl)C2", "note": "(stereo not given)", "Potency": "inconclusive: 7.31 µM [activator, partial curve, poor fit]"}, {"smiles": "CN1CCN(C(=O)C2CCCN(S(=O)(=O)c3ccc(F)cc3)C2)CC1", "note": "(stereo not given)", "Potency": "inconclusive: 29.1 µM [activator, partial curve]"}, {"smiles": "CCOc1cc(C2C(C#N)=C(N)OC(C)=C2C(C)=O)cc(Br)c1O", "note": "(stereo not given)", "Potency": "active: 8.2 µM"}]}]}
